# Reference: article PMC8514949
# Chains of the proteins cited; added tags and fusions are not shown. Residues count along the entry.
# UniProt Q14126, residues 50-1118: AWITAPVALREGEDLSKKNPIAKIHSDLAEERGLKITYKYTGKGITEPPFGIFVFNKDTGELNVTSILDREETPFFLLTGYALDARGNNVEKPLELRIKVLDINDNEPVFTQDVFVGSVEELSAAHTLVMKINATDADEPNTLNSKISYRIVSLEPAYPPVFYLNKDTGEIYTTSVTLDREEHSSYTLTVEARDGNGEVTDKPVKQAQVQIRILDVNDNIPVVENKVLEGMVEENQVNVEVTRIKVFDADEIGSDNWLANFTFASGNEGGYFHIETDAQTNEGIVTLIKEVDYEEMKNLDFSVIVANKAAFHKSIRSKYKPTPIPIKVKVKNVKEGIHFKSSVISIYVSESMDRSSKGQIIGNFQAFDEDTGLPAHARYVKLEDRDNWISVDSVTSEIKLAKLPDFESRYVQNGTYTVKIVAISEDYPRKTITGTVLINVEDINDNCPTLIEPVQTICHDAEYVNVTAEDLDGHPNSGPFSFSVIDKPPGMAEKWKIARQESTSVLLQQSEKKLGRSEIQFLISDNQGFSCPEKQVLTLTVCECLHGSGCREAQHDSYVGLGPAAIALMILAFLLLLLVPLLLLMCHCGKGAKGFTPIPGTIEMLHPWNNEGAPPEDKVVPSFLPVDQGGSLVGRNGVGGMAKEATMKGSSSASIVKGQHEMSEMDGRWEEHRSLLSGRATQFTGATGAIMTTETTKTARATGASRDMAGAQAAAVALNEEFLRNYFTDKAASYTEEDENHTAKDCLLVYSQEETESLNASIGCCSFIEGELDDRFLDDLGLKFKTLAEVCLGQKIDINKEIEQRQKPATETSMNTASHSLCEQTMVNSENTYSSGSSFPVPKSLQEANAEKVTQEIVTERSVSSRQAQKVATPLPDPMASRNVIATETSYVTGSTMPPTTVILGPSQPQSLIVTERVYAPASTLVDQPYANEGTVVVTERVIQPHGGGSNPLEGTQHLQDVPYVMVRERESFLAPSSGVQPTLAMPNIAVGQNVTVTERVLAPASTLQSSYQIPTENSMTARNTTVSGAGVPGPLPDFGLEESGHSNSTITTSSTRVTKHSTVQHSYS
# Results are given in words; binding and its absence hold for the method and conditions named. In cells and extracts the contact can be indirect. Some binding calls cover weakened binding; strength is not graded here.
# B1: Plakoglobin (protein, UniProt P14923 1-745)
# chain: MEVMNLMEQPIKVTEWQQTYTYDSGIHSGANTCVPSVSSKGIMEEDEACGRQYTLKKTTTYTQGVPPSQGDLEYQMSTTARAKRVREAMCPGVSGEDSSLLLATQVEGQATNLQRLAEPSQLLKSAIVHLINYQDDAELATRALPELTKLLNDEDPVVVTKAAMIVNQLSKKEASRRALMGSPQLVAAVVRTMQNTSDLDTARCTTSILHNLSHHREGLLAIFKSGGIPALVRMLSSPVESVLFYAITTLHNLLLYQEGAKMAVRLADGLQKMVPLLNKNNPKFLAITTDCLQLLAYGNQESKLIILANGGPQALVQIMRNYSYEKLLWTTSRVLKVLSVCPSNKPAIVEAGGMQALGKHLTSNSPRLVQNCLWTLRNLSDVATKQEGLESVLKILVNQLSVDDVNVLTCATGTLSNLTCNNSKNKTLVTQNSGVEALIHAILRAGDKDDITEPAVCALRHLTSRHPEAEMAQNSVRLNYGIPAIVKLLNQPNQWPLVKATIGLIRNLALCPANHAPLQEAAVIPRLVQLLVKAHQDAQRHVAAGTQQPYTDGVRMEEIVEGCTGALHILARDPMNRMEIFRLNTIPLFVQLLYSSVENIQRVAAGVLCELAQDKEAADAIDAEGASAPLMELLHSRNEGTATYAAAVLFRISEDKNPDYRKRVSVELTNSLFKHDPAAWEAAQSMIPINEPYGDDMDATYRPMYSSDVPLDPLEMHMDMDGDYPIDTYSDGLRPPYPTADHMLA
# Target: Desmoglein 2 (human (endogenous in Caco2)) (UniProt Q14126)
# Experiment: proximity ligation; confluent Caco2^WT cells on coverslips, basal conditions or TNFα for 24h; primary antibodies mouse anti-Dsg2 with rabbit anti-PI-3-kinase, or mouse anti-Plakoglobin with rabbit anti-Dsg2; PLUS and MINUS probes; controls without primary antibodies and Caco2 Dsg2^-/- cells
binder,measurement,value
B1,binding,binds
